# Some of the results follow.
# Sequences of proteins named here, by UniProt entry; tags and fusion partners are left off. A change or cut given only in a name is not applied to a line headed by its entry.
# UniProt Q96E29: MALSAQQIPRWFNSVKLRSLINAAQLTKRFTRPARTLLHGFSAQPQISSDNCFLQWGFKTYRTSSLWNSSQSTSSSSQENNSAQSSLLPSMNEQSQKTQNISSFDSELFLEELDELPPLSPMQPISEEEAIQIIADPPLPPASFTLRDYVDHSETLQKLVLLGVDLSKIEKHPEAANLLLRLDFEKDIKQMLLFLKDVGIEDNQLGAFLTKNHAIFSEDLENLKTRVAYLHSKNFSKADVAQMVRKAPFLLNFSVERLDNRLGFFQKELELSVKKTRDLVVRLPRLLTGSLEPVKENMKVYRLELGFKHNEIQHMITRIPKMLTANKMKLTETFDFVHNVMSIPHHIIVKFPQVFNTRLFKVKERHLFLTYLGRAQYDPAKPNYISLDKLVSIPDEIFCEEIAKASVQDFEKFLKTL
# UniProt Q96QG7: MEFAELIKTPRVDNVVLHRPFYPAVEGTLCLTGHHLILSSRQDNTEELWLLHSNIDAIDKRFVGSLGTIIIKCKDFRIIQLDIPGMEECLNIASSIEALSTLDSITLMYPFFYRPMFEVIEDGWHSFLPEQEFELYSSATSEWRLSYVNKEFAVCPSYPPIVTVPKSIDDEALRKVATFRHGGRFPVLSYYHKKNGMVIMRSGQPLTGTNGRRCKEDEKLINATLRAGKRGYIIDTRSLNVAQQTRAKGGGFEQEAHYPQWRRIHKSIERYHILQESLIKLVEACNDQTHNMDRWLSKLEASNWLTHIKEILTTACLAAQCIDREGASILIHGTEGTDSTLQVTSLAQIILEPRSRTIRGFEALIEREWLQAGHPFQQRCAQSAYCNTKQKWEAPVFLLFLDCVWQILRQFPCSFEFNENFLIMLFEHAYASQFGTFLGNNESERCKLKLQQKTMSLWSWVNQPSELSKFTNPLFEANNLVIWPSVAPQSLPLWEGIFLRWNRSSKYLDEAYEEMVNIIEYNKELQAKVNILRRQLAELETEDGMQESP
# UniProt P42898: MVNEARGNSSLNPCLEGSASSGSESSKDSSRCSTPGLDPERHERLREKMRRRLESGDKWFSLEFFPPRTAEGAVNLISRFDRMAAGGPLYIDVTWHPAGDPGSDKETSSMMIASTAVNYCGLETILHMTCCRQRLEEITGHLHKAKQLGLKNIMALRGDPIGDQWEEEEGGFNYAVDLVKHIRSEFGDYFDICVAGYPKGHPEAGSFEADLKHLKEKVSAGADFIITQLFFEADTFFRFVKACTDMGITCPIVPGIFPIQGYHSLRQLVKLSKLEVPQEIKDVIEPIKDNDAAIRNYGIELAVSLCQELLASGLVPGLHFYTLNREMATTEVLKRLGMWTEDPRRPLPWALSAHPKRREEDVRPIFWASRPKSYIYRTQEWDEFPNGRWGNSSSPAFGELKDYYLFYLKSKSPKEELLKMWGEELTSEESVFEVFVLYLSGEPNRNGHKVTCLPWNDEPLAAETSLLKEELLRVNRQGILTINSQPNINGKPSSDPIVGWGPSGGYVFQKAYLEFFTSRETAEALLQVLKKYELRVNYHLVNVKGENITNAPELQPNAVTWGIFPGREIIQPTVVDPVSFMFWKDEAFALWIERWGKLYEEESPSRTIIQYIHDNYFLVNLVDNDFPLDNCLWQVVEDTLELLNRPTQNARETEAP
# UniProt P58546, whole entry, looked up: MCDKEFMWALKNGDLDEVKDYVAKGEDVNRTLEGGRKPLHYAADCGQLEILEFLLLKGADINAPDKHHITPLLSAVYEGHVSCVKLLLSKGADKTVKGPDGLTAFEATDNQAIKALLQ
# UniProt Q8N5Y2: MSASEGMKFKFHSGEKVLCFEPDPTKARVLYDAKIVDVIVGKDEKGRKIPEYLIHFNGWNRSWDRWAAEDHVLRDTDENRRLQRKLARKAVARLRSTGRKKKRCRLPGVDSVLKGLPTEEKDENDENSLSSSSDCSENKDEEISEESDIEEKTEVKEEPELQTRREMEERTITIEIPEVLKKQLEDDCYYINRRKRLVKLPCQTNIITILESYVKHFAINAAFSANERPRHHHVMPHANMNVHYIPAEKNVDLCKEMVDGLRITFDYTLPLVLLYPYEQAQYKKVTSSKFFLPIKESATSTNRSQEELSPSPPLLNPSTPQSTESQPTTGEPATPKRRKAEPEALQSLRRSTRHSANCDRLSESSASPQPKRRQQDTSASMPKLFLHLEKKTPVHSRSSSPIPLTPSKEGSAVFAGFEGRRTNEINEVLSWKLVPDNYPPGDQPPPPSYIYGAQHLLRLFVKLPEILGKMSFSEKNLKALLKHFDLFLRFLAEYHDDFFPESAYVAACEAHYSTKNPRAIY
# UniProt Q99707: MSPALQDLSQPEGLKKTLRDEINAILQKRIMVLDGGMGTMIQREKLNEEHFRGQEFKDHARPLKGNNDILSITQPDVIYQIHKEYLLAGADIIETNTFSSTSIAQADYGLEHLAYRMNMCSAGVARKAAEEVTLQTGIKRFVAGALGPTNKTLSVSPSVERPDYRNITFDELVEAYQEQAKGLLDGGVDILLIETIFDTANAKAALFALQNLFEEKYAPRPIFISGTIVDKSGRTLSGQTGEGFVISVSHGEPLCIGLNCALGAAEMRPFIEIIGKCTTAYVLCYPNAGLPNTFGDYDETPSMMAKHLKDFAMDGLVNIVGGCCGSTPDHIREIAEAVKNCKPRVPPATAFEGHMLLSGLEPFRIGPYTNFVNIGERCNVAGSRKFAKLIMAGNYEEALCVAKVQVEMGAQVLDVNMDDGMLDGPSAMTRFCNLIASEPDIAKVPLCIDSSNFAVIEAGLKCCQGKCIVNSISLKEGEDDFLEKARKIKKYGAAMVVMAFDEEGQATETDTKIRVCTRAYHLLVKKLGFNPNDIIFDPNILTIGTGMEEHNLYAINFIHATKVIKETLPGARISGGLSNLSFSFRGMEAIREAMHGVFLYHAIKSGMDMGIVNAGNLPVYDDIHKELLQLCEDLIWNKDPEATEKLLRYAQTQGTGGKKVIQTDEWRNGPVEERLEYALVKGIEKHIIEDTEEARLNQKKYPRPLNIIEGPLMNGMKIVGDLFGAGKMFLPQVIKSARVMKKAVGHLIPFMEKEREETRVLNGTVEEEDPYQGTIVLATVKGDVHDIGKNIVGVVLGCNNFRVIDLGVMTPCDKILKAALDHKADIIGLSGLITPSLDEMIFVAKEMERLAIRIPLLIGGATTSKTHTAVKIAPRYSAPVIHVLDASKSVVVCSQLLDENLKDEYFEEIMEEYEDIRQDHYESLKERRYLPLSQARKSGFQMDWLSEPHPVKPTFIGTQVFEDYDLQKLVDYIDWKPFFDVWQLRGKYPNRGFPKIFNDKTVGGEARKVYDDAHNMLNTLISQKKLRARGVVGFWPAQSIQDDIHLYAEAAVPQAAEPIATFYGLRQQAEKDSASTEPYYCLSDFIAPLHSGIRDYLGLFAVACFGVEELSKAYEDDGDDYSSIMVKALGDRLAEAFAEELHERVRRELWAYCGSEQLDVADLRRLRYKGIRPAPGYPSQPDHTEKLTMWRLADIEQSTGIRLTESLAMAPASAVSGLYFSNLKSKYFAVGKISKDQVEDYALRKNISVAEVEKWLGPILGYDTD
# UniProt P52701: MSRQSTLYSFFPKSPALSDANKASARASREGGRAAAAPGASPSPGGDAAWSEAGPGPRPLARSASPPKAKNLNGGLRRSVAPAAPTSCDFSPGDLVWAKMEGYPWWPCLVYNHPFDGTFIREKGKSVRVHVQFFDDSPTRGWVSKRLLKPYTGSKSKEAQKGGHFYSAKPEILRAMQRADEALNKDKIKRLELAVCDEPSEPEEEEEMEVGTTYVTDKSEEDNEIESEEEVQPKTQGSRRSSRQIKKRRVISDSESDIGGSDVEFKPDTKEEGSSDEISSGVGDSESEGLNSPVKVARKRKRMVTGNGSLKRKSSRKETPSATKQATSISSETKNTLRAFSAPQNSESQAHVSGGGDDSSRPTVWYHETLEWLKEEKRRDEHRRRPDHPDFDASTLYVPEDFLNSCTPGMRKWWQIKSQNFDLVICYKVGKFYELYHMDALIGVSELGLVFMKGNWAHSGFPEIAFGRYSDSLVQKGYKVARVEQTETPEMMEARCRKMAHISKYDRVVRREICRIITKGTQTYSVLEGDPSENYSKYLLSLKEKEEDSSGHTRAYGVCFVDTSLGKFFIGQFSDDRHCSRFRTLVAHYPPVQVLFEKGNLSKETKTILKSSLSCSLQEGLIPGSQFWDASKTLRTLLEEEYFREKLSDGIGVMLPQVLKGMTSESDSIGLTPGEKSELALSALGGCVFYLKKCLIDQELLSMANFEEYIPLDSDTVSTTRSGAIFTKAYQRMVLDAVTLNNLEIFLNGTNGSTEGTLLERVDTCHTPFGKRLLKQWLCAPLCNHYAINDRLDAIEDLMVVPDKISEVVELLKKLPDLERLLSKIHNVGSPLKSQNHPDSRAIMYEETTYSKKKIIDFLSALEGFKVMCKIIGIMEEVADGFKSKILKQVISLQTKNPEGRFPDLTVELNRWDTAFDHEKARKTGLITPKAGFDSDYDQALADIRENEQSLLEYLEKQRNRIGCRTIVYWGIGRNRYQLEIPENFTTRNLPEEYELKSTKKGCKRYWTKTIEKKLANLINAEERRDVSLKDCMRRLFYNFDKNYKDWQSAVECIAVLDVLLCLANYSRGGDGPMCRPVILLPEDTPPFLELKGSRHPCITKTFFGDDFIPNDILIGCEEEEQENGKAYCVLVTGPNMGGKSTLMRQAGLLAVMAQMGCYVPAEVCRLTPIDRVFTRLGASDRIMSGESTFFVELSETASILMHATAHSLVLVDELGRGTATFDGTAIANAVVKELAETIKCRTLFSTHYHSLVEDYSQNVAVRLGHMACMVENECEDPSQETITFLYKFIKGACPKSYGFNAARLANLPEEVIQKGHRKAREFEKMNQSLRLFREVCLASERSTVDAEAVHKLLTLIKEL
# UniProt O94776: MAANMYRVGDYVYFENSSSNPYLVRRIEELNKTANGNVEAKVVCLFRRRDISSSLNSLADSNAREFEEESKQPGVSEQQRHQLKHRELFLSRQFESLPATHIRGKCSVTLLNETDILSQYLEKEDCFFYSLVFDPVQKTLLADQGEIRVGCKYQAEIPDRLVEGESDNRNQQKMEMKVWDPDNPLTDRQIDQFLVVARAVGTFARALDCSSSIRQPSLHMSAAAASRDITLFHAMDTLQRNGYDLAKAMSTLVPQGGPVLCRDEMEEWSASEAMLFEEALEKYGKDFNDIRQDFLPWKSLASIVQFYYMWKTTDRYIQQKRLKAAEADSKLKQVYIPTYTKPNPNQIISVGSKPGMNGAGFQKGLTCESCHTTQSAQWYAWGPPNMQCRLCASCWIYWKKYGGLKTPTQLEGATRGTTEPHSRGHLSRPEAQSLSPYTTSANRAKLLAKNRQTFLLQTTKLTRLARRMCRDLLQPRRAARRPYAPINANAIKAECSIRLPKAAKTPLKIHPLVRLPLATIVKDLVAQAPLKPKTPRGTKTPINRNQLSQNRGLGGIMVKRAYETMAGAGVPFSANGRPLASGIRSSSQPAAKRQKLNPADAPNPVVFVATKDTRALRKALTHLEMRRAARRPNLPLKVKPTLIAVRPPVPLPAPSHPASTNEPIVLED
# UniProt Q9BUK6: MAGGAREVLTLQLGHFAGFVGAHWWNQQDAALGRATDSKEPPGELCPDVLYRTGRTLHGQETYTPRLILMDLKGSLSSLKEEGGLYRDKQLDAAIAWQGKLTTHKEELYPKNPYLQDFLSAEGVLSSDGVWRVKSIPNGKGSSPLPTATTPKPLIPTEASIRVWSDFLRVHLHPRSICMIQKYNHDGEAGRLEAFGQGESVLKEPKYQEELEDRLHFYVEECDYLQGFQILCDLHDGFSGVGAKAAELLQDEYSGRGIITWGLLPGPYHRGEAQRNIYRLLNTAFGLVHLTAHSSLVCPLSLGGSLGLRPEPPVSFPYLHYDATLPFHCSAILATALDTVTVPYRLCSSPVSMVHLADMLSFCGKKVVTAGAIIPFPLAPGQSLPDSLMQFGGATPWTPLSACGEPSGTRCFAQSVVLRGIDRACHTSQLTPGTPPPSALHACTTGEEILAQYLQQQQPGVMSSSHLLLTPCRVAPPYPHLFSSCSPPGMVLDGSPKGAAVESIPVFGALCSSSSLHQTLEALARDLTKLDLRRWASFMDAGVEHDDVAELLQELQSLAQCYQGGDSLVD
# UniProt P03891, whole entry, looked up: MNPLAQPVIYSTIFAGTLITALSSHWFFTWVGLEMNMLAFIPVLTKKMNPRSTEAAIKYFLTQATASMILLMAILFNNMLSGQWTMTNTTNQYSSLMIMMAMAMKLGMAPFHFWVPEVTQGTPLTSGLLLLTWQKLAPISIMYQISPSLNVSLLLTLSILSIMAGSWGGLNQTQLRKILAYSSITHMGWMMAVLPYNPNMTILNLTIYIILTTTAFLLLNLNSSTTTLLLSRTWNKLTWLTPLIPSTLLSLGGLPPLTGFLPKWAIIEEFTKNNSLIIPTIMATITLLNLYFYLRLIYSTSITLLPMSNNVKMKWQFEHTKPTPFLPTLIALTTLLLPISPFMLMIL
# What was measured:
# Assay in all cases: log2 fold change, soluble protein after heating vs DMSO (PISA); higher = thermal stabilisation; K562 lysate, 10 uM; active = over 0.2 and 3.5 SD of the protein, either way, in both replicates (recomputed)
# [1] = compound: NCC(=O)Nc1ccc(-n2nc(C(F)(F)F)cc2-c2ccc3c(ccc4ccccc43)c2)cc1
# How it was run: (§1)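 The values are log-two fold changes in thermal stability compared with solvent controls and come from duplicates. They were obtained by TMTpro 16plex LC-MS/MS, with channel sums equalised, on the supernatant after 21,000xg for 90 min. That supernatant came from crude K562 extract at 1 mg/mL protein treated with 10 μM compound for 30 min, heated for 3 min across 48°C-58°C, pooled and brought to 0.5% NP-40 at 4°C.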
# vorinostat = compound: O=C(CCCCCCC(=O)Nc1ccccc1)NO [vorinostat]
# How it was run: as §1
# silmitasertib = compound: O=C(O)c1ccc2c(c1)nc(Nc1cccc(Cl)c1)c1ccncc12 [silmitasertib]
# How it was run: as §1
# [2] = compound: O=C1NC(=O)C(c2cnc3ccccn23)=C1c1cn2c3c(cc(F)cc13)CN(C(=O)N1CCCCC1)CC2
# How it was run: as §1
# entospletinib = compound: c1cn2cc(-c3ccc4cn[nH]c4c3)nc(Nc3ccc(N4CCOCC4)cc3)c2n1 [entospletinib]
# How it was run: as §1
Target,log2 fold change [1],log2 fold change (vorinostat),log2 fold change (silmitasertib),log2 fold change [2],log2 fold change (entospletinib)
MTERF3 (UniProt Q96E29),inactive: -0.027,inactive: 0,inactive: 0.07,inactive: 0.005,inactive: 0.048
MRPS16 (UniProt Q9Y3D3),inactive: -0.033,inactive: -0.102,inactive: 0.02,inactive: 0.007,inactive: 0.044
MTMR9 (UniProt Q96QG7),inactive: -0.062,inactive: -0.13,inactive: 0.126,inactive: -0.077,inactive: -0.038
MRPS6 (UniProt P82932),inactive: 0.011,inactive: -0.177,inactive: 0.032,inactive: 0.012,inactive: -0.015
MRPS18B (UniProt Q9Y676),inactive: 0.012,inactive: -0.217,inactive: 0.005,inactive: 0.037,inactive: 0.008
MTHFR isoform 2 (UniProt P42898),inactive: 0.011,inactive: -0.11,inactive: 0.011,inactive: -0.024,inactive: -0.008
MTPN (UniProt P58546),inactive: -0.098,inactive: 0.088,inactive: -0.011,inactive: 0.032,inactive: -0.062
MSL3 (UniProt Q8N5Y2),inactive: 0.026,inactive: -0.025,inactive: 0.027,inactive: -0.007,inactive: 0.039
MT-ATP6 (UniProt P00846),inactive: 0.023,inactive: 0.126,inactive: 0.118,inactive: -0.029,inactive: 0.016
MRPS23 (UniProt Q9Y3D9),inactive: 0.008,inactive: -0.13,inactive: 0.018,inactive: -0.028,inactive: -0.001
MTDH (UniProt E5RJU9),inactive: 0.1,inactive: 0.198,inactive: -0.005,inactive: -0.038,inactive: 0.042
MRPS28 (UniProt Q9Y2Q9),inactive: -0.024,inactive: 0.005,inactive: 0.012,inactive: -0.026,inactive: 0.049
MRTFA (UniProt Q969V6),inactive: -0.124,inactive: -0.202,inactive: 0.1,inactive: -0.04,inactive: -0.006
MTR (UniProt Q99707),inactive: 0.024,inactive: -0.148,inactive: 0.039,inactive: 0.01,inactive: -0.005
MRPL39 isoform 2 (UniProt Q9NYK5),inactive: -0.01,inactive: -0.073,inactive: 0.022,inactive: 0.007,inactive: 0
MSH6 (UniProt P52701),inactive: 0.008,active: -0.287,inactive: 0.063,inactive: 0.016,inactive: -0.012
MTDH (UniProt Q86UE4),inactive: 0.028,inactive: 0.169,inactive: -0.008,inactive: 0.009,inactive: -0.014
MTA2 (UniProt O94776),inactive: 0.034,active: -0.352,inactive: 0.02,inactive: 0.006,inactive: 0.021
MRPL54 (UniProt Q6P161),inactive: 0,inactive: -0.003,inactive: 0.024,inactive: -0.041,inactive: 0
MTOR (UniProt P42345),inactive: -0.035,active: -0.305,inactive: 0.146,inactive: -0.013,inactive: -0.024
MRPL47 (UniProt Q9HD33),inactive: -0.048,inactive: -0.028,inactive: 0.06,inactive: -0.048,inactive: -0.007
MSTO1 (UniProt Q9BUK6),inactive: 0.017,inactive: -0.089,inactive: 0.09,inactive: 0.021,inactive: -0.004
MT-ND2 (UniProt P03891),inactive: -0.129,inactive: 0.048,inactive: 0.079,inactive: -0.066,inactive: 0.073
MRPL40 (UniProt Q9NQ50),inactive: 0.07,inactive: 0.105,inactive: -0.02,inactive: -0.041,inactive: -0.05
MTHFD1L (UniProt B7ZM99),inactive: 0.031,active: -0.408,inactive: 0.07,inactive: 0.045,inactive: -0.02

# Retrieved one by one from above:
Target,log2 fold change [1],log2 fold change (vorinostat),log2 fold change (silmitasertib),log2 fold change [2],log2 fold change (entospletinib)
MSTO1 (UniProt Q9BUK6),inactive: 0.017,inactive: -0.089,inactive: 0.09,inactive: 0.021,inactive: -0.004
MT-ATP6 (UniProt P00846),inactive: 0.023,inactive: 0.126,inactive: 0.118,inactive: -0.029,inactive: 0.016
